# The other results are listed elsewhere or left out. Many values rest on one well or one pass, so single values are uncertain.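 Imaging used 1,536-well plates; nuclei positive for cleaved PARP by antibody were divided by total DNA-stained nuclei to yield the apoptosis fraction. Doses for screening kept most cells viable, and cell lines differ markedly in resting and induced cleaved-PARP levels.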
# System: SkMel5
# Test: cleaved PARP positive nuclei fraction relative to DMSO control; melanoma cells; higher = more apoptosis
# Details: library dose: low library concentration; 72 h
row,SMILES,cleaved PARP positive nuclei fraction [%]
1,"O=C(Nc1cccc(Cl)c1)Nc1ncc(CCNc2ncnc3ccsc23)s1 + COc1cc(N2CCC(N3CCN(C)CC3)CC2)ccc1Nc1ncc(Cl)c(Nc2ccccc2S(=O)(=O)C(C)C)n1 [NVP-TAE684] (first compound 0.0008 µM, partner dose 0.08 µM)",35.5
2,"C[C@]1(c2nc3c(C(N)=O)cccc3[nH]2)CCCN1 [Veliparib] + O=S(=O)(c1ccccc1)N(CC(F)(F)F)c1ccc(C(O)(C(F)(F)F)C(F)(F)F)cc1 [T0901317] (first compound 1.4 µM, partner dose 1.4 µM)",68.9
3,"Cc1nc(Nc2ncc(C(=O)Nc3c(C)cccc3Cl)s2)cc(N2CCN(CCO)CC2)n1 [dasatanib] + CCc1ccc(CCOc2ccc(CC3SC(=O)NC3=O)cc2)nc1 [pioglitazone] (first compound 0.004 µM, partner dose 2 µM)",102
4,"CC1(C)NC(=O)N(c2ccc([N+](=O)[O-])c(C(F)(F)F)c2)C1=O [nilutamide] + O=c1cc(-c2cccc3c2Sc2ccccc2S3)oc(N2CCOCC2)c1 [KU55933] (first compound 1 µM, partner dose 1 µM)",27.6
5,"COc1cc(Nc2ncc(F)c(Nc3ccc4c(n3)NC(=O)C(C)(C)O4)n2)cc(OC)c1OC [Tamatinib] + Oc1nc(-c2ccc(C(F)(F)F)cc2)nc2c1CSCC2 [XAV939] (first compound 0.4 µM, partner dose 2 µM)",144
6,"O=C(CCCCCCC(=O)Nc1ccccc1)NO [vorinostat] + O=C(O)C(=O)Nc1sc2c(c1C(=O)O)CCNC2 [TCS401] (first compound 0.08 µM, partner dose 1.66667 µM)",84.2

# System: UACC257
# Test: as above
# Details: library dose: low library concentration; 72 h
row,SMILES,cleaved PARP positive nuclei fraction [%]
1,"O=C(CCCCCCC(=O)Nc1ccccc1)NO [vorinostat] + COc1ccc2c(c1)CCC1C2CCC2(C)C(NCCCCCCN3C(=O)C=CC3=O)CCC12 [U73122] (first compound 0.08 µM, partner dose 0.4 µM)",154
2,"Cn1nnc2c(C(N)=O)ncn2c1=O [temozolomide] + COc1ccc(COc2ccc(Cc3cnc(N)nc3N)cc2OC)cc1 [GW2580] (first compound 2 µM, partner dose 1 µM)",146
3,"OCCn1cc(-c2cnc3nnn(Cc4ccc5ncccc5c4)c3n2)cn1 + COc1ccc(-c2ccc3c(N4CCOCC4)nc(N4C[C@@H](C)O[C@@H](C)C4)nc3n2)cc1CO [KU0063794] (first compound 1 µM, partner dose 0.02 µM)",61.2
4,"Cc1ccc(NC(=O)c2cccc(N(C)C)c2)cc1NC(=O)c1ccc(O)cc1 + Cn1cc(/C=C2\C(=O)Nc3cccnc32)c2ccccc21 [GW441756] (first compound 2 µM, partner dose 0.4 µM)",104
5,"Cc1ccc(NC(=O)c2cccc(N(C)C)c2)cc1NC(=O)c1ccc(O)cc1 + CCCCCCCCCCCC1=C(O)C(=O)C=C(O)C1=O [Embelin] (first compound 2 µM, partner dose 1.2 µM)",69.5
6,"Cn1cncc1[C@@](N)(c1ccc(Cl)cc1)c1ccc2c(c1)c(-c1cccc(Cl)c1)cc(=O)n2C [tipifarnib] + Cc1cc([N+](=O)[O-])ccc1NS(=O)(=O)c1cc(Cl)ccc1Cl [FH535] (first compound 0.01 µM, partner dose 1 µM)",188
7,"Cn1c(Nc2ccc(C(F)(F)F)cc2)nc2cc(Oc3ccnc(-c4ncc(C(F)(F)F)[nH]4)c3)ccc21 + COc1ccc2c(c1)CCC1C2CCC2(C)C(NCCCCCCN3C(=O)C=CC3=O)CCC12 [U73122] (first compound 0.08 µM, partner dose 0.4 µM)",704
8,"Cn1cncc1[C@@](N)(c1ccc(Cl)cc1)c1ccc2c(c1)c(-c1cccc(Cl)c1)cc(=O)n2C [tipifarnib] + Oc1cc(-c2nc(-c3ccccc3)[nH]c2-c2ccncc2)ccc1Cl [L779450] (first compound 0.01 µM, partner dose 0.2 µM)",218
9,"OCCn1cc(-c2cnc3nnn(Cc4ccc5ncccc5c4)c3n2)cn1 + O=C(O)C(=O)Nc1sc2c(c1C(=O)O)CCNC2 [TCS401] (first compound 1 µM, partner dose 1.66667 µM)",50.5
10,"C=CCn1c(=O)c2cnc(Nc3ccc(N4CCN(C)CC4)cc3)nc2n1-c1cccc(C(C)(C)O)n1 + Oc1nc(-c2ccc(C(F)(F)F)cc2)nc2c1CSCC2 [XAV939] (first compound 0.02 µM, partner dose 2 µM)",143
11,"Nc1cccc2c1CN(C1CCC(=O)NC1=O)C2=O (stereo not drawn) [lenalidomide] + CCCCCCCCCCCC1=C(O)C(=O)C=C(O)C1=O [Embelin] (first compound 1 µM, partner dose 1.2 µM)",63.9
12,"C[C@@H]1CCN(C(=O)CC#N)C[C@@H]1N(C)c1ncnc2[nH]ccc12 + Oc1cc(-c2nc(-c3ccccc3)[nH]c2-c2ccncc2)ccc1Cl [L779450] (first compound 1 µM, partner dose 0.2 µM)",76
13,"Cc1cc(N2CCOCC2)cc2[nH]c(-c3c(NC[C@@H](O)c4cccc(Cl)c4)cc[nH]c3=O)nc12 + Cc1cc([N+](=O)[O-])ccc1NS(=O)(=O)c1cc(Cl)ccc1Cl [FH535] (first compound 0.2 µM, partner dose 1 µM)",281
14,"C=CCn1c(=O)c2cnc(Nc3ccc(N4CCN(C)CC4)cc3)nc2n1-c1cccc(C(C)(C)O)n1 + O=C1NC(=O)/C(=C/c2ccc(-c3ccc(F)cc3O)o2)S1 [AS252424] (first compound 0.02 µM, partner dose 1 µM)",153
15,"Cc1ccc(NC(=O)c2cccc(N(C)C)c2)cc1NC(=O)c1ccc(O)cc1 + N#Cc1c(O)c2c(-c3ccc(-c4ccccc4O)cc3)csc2[nH]c1=O [A769662] (first compound 2 µM, partner dose 2 µM)",58.9
16,"Cn1cncc1[C@@](N)(c1ccc(Cl)cc1)c1ccc2c(c1)c(-c1cccc(Cl)c1)cc(=O)n2C [tipifarnib] + CCN(CC)CCCCNc1ncc2cc(-c3cc(OC)cc(OC)c3)c(NC(=O)NC(C)(C)C)nc2n1 [PD173074] (first compound 0.01 µM, partner dose 0.1 µM)",190
17,"O=C(CCCCCCC(=O)Nc1ccccc1)NO [vorinostat] + CCCCCCCCCCCC1=C(O)C(=O)C=C(O)C1=O [Embelin] (first compound 0.08 µM, partner dose 1.2 µM)",168
18,"Cn1nnc2c(C(N)=O)ncn2c1=O [temozolomide] + Cn1cc(/C=C2\C(=O)Nc3cccnc32)c2ccccc21 [GW441756] (first compound 2 µM, partner dose 0.4 µM)",131
19,"Nc1cccc2c1CN(C1CCC(=O)NC1=O)C2=O (stereo not drawn) [lenalidomide] + COc1cc2ncnc(Nc3ccc(Oc4ccccc4)cc3)c2cc1OC [SrcI1] (first compound 1 µM, partner dose 2 µM)",140
20,"COc1cc(Nc2ncc(F)c(Nc3ccc4c(n3)NC(=O)C(C)(C)O4)n2)cc(OC)c1OC [Tamatinib] + CCc1ccc(CCOc2ccc(CC3SC(=O)NC3=O)cc2)nc1 [pioglitazone] (first compound 0.4 µM, partner dose 2 µM)",122
21,"Cc1nc(Nc2ncc(C(=O)Nc3c(C)cccc3Cl)s2)cc(N2CCN(CCO)CC2)n1 [dasatanib] + COc1cc(N2CCC(N3CCN(C)CC3)CC2)ccc1Nc1ncc(Cl)c(Nc2ccccc2S(=O)(=O)C(C)C)n1 [NVP-TAE684] (first compound 0.004 µM, partner dose 0.08 µM)",393
22,"Cn1c(Nc2ccc(C(F)(F)F)cc2)nc2cc(Oc3ccnc(-c4ncc(C(F)(F)F)[nH]4)c3)ccc21 + Cc1cc([N+](=O)[O-])ccc1NS(=O)(=O)c1cc(Cl)ccc1Cl [FH535] (first compound 0.08 µM, partner dose 1 µM)",427
23,"O=C(CCCCCCC(=O)Nc1ccccc1)NO [vorinostat] + O=S(=O)(c1ccccc1)N(CC(F)(F)F)c1ccc(C(O)(C(F)(F)F)C(F)(F)F)cc1 [T0901317] (first compound 0.08 µM, partner dose 1.4 µM)",77.6
24,"CC(C)(C)c1cnc(CSc2cnc(NC(=O)C3CCNCC3)s2)o1 + CCc1ccc(CCOc2ccc(CC3SC(=O)NC3=O)cc2)nc1 [pioglitazone] (first compound 0.01 µM, partner dose 2 µM)",139
25,"COc1cc(Nc2ncc(F)c(Nc3ccc4c(n3)NC(=O)C(C)(C)O4)n2)cc(OC)c1OC [Tamatinib] + Cn1cc(/C=C2\C(=O)Nc3cccnc32)c2ccccc21 [GW441756] (first compound 0.4 µM, partner dose 0.4 µM)",71.4
26,"C#Cc1cccc(Nc2ncnc3cc(OCCOC)c(OCCOC)cc23)c1 [erlotinib] + N#Cc1c(O)c2c(-c3ccc(-c4ccccc4O)cc3)csc2[nH]c1=O [A769662] (first compound 0.8 µM, partner dose 2 µM)",106
27,"OCCn1cc(-c2cnc3nnn(Cc4ccc5ncccc5c4)c3n2)cn1 + COc1cc(N2CCC(N3CCN(C)CC3)CC2)ccc1Nc1ncc(Cl)c(Nc2ccccc2S(=O)(=O)C(C)C)n1 [NVP-TAE684] (first compound 1 µM, partner dose 0.08 µM)",28.4

# 2 entries from above, with bars between the fields.
row | SMILES | cleaved PARP positive nuclei fraction [%]
18 | Cn1nnc2c(C(N)=O)ncn2c1=O [temozolomide] + Cn1cc(/C=C2\C(=O)Nc3cccnc32)c2ccccc21 [GW441756] (first compound 2 µM, partner dose 0.4 µM) | 131
19 | Nc1cccc2c1CN(C1CCC(=O)NC1=O)C2=O (stereo not drawn) [lenalidomide] + COc1cc2ncnc(Nc3ccc(Oc4ccccc4)cc3)c2cc1OC [SrcI1] (first compound 1 µM, partner dose 2 µM) | 140

# From the supplement of paper PMC4604168 (melanoma cell lines)
